Reference: PubChem BioAssay AID2013 (Sanford-Burnham Center for Chemical Genomics, 2009)
Out of some 290,000 compounds screened, about 370 (0.13%) were called active. The shares of active, inactive and inconclusive entries below differ from those in the screen.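 How the source made its calls: active means spots per cell inhibited over 60%, with over 100 cells counted and total cytoplasm intensity under 500,000; inconclusive means wells with under 100 cells, flagged as likely toxic; inactive means the rest.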

Sequences of proteins named here, by UniProt entry; tags and fusion partners are left off. A change or cut given only in a name is not applied to a line headed by its entry.
UniProt Q9Y2T6: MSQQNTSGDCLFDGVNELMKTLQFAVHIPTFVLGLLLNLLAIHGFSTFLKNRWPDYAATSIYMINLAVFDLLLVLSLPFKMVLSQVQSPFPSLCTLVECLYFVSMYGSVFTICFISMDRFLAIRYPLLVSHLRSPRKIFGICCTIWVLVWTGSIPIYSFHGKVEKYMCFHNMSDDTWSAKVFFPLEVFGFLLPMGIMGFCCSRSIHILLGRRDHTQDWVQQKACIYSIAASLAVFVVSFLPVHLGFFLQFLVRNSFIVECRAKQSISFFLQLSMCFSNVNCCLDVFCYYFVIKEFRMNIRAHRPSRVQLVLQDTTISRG

target: G-protein coupled receptor 55 (Homo sapiens) (UniProt Q9Y2T6); experiment: GPR55 antagonists blocking LPI-driven arrestin recruitment, primary screen, imaging, U2OS, beta-arrestin-GFP, LPI agonist (AID 2013); settings: U2OS GPR55 beta-arrestin-GFP translocation imaging, LPI antagonism; at 10 µM; hits give high values;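 further: U2OS cells stably carrying GPR55 and arrestin-GFP stimulated by 5 µM LPI near EC80; imaged beta-arrestin-GFP aggregate spots per cell after agonist stimulation; plate controls were LPI-stimulated DMSO wells for no effect and DMSO wells without LPI for full effect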

Compound | inhibition
O=c1[nH]c(=O)n(-c2cccc(F)c2)c(O)c1/C=C1\C=Nc2ccccc21 | inactive: 8.8%
C/C(=N\Nc1ccccc1)c1c(O)[nH]c(=O)[nH]c1=O | inactive: -0.7%
Cc1cc(C)nc(-n2c(C)nc3cc(Cl)ccc3c2=O)c1 | inactive: 14.5%
O=c1[nH]c(=O)n(-c2ccccc2)c(O)c1/C=C1/C(c2ccccc2)=Nc2ccccc21 | active: 68.8%
CN1/C(=C\C=C\C2=[N+](C)c3ccc4ccccc4c3C2(C)C)C(C)(C)c2ccccc21 | inconclusive: 103%
Cc1cccc(-n2c(O)c(/C=C3/C(c4ccccc4)=Nc4ccccc43)c(=O)[nH]c2=O)c1 | active: 74.4%
O=C(/C=C/c1c[nH]c2ccccc12)c1c(O)n(CCc2ccccc2)c(=O)[nH]c1=O | inconclusive: 77.2%
CCN1CCN(C(=O)Cc2ccc(C)cc2)CC1 | inconclusive: 104%
CCN(CC)CCCN=C(C)c1c(O)n(C2CCCCC2)c(=O)[nH]c1=O | inconclusive: 61.2%
CNc1ccc2oc(C[C@H]3O[C@@]4(CC[C@H]3C)O[C@H]([C@H](C)C(=O)c3ccc[nH]3)[C@H](C)C[C@H]4C)nc2c1C(=O)O | inconclusive: 42.7%
CCN1/C(=C\C=C\C2=[N+](CC)c3ccccc3C2(C)C)C(C)(C)c2ccccc21 | inconclusive: 93.5%
Cn1ncnc2c(=O)n(C)c(=O)nc1-2 | active: 79.3%
O=C1NC(=O)N(CCc2ccc(F)cc2)C(=O)/C1=C/c1ccco1 | active: 95.4%
Cc1ccc2c(c1Cl)NC(C(=O)O)C1CC(Sc3ccccc3[N+](=O)[O-])C(Cl)C21 (configuration not stated) | active: 70.4%
Cc1ccccc1-n1c(O)c(/C=C2/C(c3ccccc3)=Nc3ccccc32)c(=O)[nH]c1=O | active: 83%
CCN(CC)c1ccc(/C=N/c2sc3c(c2C#N)C2CCN3CC2)c(O)c1 | inconclusive: 75.7%
Oc1ccc(C(=C(Cl)Cl)c2ccc(O)cc2)cc1 | active: 94.8%

A portion from further up, as a working copy:
Compound | inhibition
O=c1[nH]c(=O)n(-c2ccccc2)c(O)c1/C=C1/C(c2ccccc2)=Nc2ccccc21 | active: 68.8%
CN1/C(=C\C=C\C2=[N+](C)c3ccc4ccccc4c3C2(C)C)C(C)(C)c2ccccc21 | inconclusive: 103%
